Results are given in words; binding and its absence hold for the method and conditions named. Binding seen in cells or lysates may run through a third protein. Some results given as binding are weak or reduced against the parent protein; the word gives no strength. For part of these data: Sequences can lack the tags named with a protein.
How the values were obtained:
[1] = target: T1, Flag-tagged Angiotensin II type 1 receptor-associated protein (Flag-ATRAP) (UniProt Q6RW13); assay: co-IP; anti-Flag antibody cross-linked to magnetic beads (Pierce Crosslinked Magnetic Bead IP/Co-IP Kit), lysate of MDA-MB-453 or T47D cells transfected with Flag-ATRAP, overnight at 4 C, western blot of the eluate
T1 sequence: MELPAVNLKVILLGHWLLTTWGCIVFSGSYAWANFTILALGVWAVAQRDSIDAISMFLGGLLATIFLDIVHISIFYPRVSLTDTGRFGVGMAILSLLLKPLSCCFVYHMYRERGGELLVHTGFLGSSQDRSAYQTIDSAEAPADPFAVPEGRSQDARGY

Protein sequences, listed by entry. Tags and fused reporters are not part of them.
UniProt P54578: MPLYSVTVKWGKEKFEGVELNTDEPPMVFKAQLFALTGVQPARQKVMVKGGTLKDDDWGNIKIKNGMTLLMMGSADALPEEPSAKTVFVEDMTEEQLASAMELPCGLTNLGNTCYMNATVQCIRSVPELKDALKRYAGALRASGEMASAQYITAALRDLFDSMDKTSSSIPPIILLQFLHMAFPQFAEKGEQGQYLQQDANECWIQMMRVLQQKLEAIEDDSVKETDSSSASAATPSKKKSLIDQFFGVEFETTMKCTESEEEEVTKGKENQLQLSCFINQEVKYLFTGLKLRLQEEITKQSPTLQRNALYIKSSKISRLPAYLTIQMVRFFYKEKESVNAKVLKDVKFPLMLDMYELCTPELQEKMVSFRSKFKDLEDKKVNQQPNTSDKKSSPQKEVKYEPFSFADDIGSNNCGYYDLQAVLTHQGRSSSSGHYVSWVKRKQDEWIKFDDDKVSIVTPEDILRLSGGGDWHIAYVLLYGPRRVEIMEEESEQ

[2] = target: T2, Pre-B cell leukemia homeobox 3 (PBX3), endogenous (human (endogenous in MDA-MB-453, T47D and UACC-812)) (UniProt P40426); assay: co-IP; antibody against endogenous PBX3 cross-linked to magnetic beads, lysate of UACC-812 and T47D cells, overnight at 4 C, western blot of the eluate
T2 sequence: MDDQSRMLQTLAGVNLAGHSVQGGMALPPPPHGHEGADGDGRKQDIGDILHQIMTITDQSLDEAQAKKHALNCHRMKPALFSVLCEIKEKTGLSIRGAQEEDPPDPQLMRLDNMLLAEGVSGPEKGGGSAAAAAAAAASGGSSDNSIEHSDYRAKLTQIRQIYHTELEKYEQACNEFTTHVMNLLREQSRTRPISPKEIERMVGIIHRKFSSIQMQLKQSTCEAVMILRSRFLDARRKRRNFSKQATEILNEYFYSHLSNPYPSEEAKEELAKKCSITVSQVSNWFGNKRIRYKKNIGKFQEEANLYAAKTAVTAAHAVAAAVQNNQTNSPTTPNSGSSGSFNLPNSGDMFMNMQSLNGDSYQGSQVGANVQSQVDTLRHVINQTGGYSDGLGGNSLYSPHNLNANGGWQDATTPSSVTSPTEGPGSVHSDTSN

[3] = target: Ubiquitin-specific protease 14 (USP14), endogenous (human (endogenous in MDA-MB-453 and UACC-812)) (UniProt P54578); assay: co-IP; anti-USP14 antibody cross-linked to magnetic beads, lysate of UACC-812 cells, overnight at 4 C, western blot of the eluate

B1: Pre-B cell leukemia homeobox 3 (PBX3), endogenous (protein, UniProt P40426 1-434)
chain: T2 sequence
binding [1]: binds

B2: Angiotensin II type 1 receptor-associated protein (ATRAP), endogenous (protein, UniProt Q6RW13 1-159)
chain: T1 sequence
binding [2]: binds | binding [3]: binds

Reference: publication PMC8990462
